Measurements reported in PMC5825159.
No constants are given. Whether binding was seen depends on the method and setting. In cells and extracts the contact can be indirect. Some entries that bind do so weakly or less than the wild type. For some of these results: Tags and fused reporters may be left off the sequences shown.

Amino acid sequences for entries named in this document (tags omitted).
UniProt P35582: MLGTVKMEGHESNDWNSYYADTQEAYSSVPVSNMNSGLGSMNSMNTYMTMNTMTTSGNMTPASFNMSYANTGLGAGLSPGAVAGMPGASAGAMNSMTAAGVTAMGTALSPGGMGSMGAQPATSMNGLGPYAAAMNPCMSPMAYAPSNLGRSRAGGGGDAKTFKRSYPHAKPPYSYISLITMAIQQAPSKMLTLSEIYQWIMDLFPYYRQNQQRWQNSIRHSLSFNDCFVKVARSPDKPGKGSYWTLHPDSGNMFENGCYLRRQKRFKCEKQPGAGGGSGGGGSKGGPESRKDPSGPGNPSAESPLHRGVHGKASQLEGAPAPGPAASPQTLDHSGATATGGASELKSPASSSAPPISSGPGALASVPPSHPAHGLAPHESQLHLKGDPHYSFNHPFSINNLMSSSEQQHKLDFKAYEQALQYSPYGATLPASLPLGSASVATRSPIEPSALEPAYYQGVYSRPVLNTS
UniProt P48432: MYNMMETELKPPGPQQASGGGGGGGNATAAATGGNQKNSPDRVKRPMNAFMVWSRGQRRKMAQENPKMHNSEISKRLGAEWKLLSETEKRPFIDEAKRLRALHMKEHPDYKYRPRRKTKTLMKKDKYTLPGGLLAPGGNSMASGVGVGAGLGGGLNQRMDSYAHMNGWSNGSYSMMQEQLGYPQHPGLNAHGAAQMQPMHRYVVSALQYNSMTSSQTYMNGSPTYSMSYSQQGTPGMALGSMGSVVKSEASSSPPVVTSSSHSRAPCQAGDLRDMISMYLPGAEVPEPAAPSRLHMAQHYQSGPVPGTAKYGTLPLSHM

Key:
[1] = biological target: T1, ZEB1-flag (UniProt Q64318); test: co-IP; as the co-IP from HEK293 lysate on Flag antibody bound beads, but 100U/ml DNase I added to the lysate for 30 min at 4°C before immunoprecipitation
T1 sequence: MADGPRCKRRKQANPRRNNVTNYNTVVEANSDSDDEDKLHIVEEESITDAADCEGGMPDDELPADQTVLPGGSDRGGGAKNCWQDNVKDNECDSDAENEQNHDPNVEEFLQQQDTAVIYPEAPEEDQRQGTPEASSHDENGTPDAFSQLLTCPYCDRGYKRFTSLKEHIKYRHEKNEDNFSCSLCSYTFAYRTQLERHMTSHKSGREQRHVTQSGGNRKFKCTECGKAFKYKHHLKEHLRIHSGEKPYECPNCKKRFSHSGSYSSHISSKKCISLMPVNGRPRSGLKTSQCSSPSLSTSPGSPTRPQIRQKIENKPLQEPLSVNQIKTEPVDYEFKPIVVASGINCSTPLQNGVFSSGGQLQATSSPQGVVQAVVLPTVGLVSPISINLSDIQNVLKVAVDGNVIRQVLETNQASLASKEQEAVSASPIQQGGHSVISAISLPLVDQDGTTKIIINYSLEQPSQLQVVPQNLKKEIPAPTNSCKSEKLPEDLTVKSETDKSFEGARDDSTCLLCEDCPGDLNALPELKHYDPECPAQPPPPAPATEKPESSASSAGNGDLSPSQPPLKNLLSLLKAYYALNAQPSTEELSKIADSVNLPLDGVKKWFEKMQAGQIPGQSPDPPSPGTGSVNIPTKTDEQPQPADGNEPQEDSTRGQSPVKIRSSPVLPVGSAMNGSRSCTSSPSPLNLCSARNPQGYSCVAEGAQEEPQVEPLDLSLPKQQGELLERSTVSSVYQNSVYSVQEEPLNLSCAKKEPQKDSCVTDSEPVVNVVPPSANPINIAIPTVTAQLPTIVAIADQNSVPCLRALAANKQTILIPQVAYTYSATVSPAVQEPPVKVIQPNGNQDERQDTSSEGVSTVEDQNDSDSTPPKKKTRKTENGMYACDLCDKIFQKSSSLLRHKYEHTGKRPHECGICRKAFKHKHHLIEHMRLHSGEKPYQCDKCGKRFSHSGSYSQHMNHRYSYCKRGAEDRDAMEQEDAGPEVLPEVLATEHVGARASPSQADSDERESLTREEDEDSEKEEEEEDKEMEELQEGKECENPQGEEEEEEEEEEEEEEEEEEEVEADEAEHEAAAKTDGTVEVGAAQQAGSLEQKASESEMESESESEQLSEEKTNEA

[2] = biological target: FOXA1-flag (UniProt P35582); test: as above
[3] = biological target: T1, ZEB1-flag; test: co-IP; HEK293 cells co-transfected with 5 ug of each expression vector; lysate incubated with Flag antibody bound beads 2h at 4°C; eluted with 3xFlag peptide; Myc-tagged SOX2 forms analysed; no DNase I
[4] = biological target: FOXA1-flag (UniProt P35582); test: as above

- binding [1]: binds
- binding [2]: binds
- binding [3]: binds
- binding [4]: binds
Substance: Myc-tagged full-length SOX2 (from UniProt P48432 1-319)
